Positions count from the first letter of the chain named. Results are given in words; binding and its absence hold for the method and conditions named. In cells and extracts the contact can be indirect. Some results given as binding are weak or reduced against the parent protein; the word gives no strength. For part of these data: Tags and fused reporters may be left off the sequences shown.
Key:
[1] = target: GFP-FAM122A (mouse) (UniProt Q9DB52); experiment: pull-down
[2] = target: GST-FAM122A (mouse) (UniProt Q9DB52); experiment: pull-down
[3] = target: RFP-FAM122A (mouse) (UniProt Q9DB52); experiment: pull-down
[4] = target: T1, FAM122A(L70-K86) peptide fused to GST (mouse) (UniProt Q9DB52); experiment: pull-down
T1 sequence: LPASPVRMHSSRLHQIK

[5] = target: T2, FLAG-FAM122A RLAAIK (helix tolerant mutant) (mouse) (UniProt Q9DB52); experiment: co-IP
T2 sequence: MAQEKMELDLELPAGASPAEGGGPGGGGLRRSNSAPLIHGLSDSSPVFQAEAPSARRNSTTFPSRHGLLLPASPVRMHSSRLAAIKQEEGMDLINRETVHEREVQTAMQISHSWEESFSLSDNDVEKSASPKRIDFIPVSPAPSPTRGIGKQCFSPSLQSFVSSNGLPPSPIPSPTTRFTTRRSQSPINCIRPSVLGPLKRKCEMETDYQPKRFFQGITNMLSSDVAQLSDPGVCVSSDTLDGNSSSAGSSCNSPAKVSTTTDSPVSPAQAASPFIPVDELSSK

[6] = target: T3, FLAG-FAM122A E97K-E101K (mouse) (UniProt Q9DB52); experiment: co-IP
T3 sequence: T2 sequence with A83H, A84Q, E97K, E101K

[7] = target: T4, FLAG-FAM122A RLGGIK (helix breaker mutant, Gly) (mouse) (UniProt Q9DB52); experiment: co-IP
T4 sequence: T2 sequence with A83G, A84G

[8] = target: T5, FLAG-FAM122A RLPPIK (helix breaker mutant, Pro) (mouse) (UniProt Q9DB52); experiment: co-IP
T5 sequence: T2 sequence with A83P, A84P

[9] = target: T6, FLAG-FAM122A R81A-L82A (SLiM mutant) (mouse) (UniProt Q9DB52); experiment: co-IP
T6 sequence: T2 sequence with R81A, L82A, A83H, A84Q

[10] = target: FLAG-FAM122A wild type (murine) (mouse) (UniProt Q9DB52); experiment: co-IP
[11] = target: T7, FLAG-FAM122A E97K (mouse) (UniProt Q9DB52); experiment: co-IP
T7 sequence: T2 sequence with A83H, A84Q, E97K

[12] = target: T8, FLAG-FAM122A E101K (mouse) (UniProt Q9DB52); experiment: co-IP
T8 sequence: T2 sequence with A83H, A84Q, E101K

binding [1]: binds
binding [2]: binds
binding [3]: binds
binding [4]: no binding
binding [6]: binds
binding [7]: no binding
binding [8]: no binding
binding [9]: no binding
binding [10]: binds
binding [11]: binds
binding [12]: binds
B1: endogenous B55α (protein, UniProt P63151 1-447)
chain: MAGAGGGNDIQWCFSQVKGAVDDDVAEADIISTVEFNHSGELLATGDKGGRVVIFQQEQENKIQSHSRGEYNVYSTFQSHEPEFDYLKSLEIEEKINKIRWLPQKNAAQFLLSTNDKTIKLWKISERDKRPEGYNLKEEDGRYRDPTTVTTLRVPVFRPMDLMVEASPRRIFANAHTYHINSISINSDYETYLSADDLRINLWHLEITDRSFNIVDIKPANMEELTEVITAAEFHPNSCNTFVYSSSKGTIRLCDMRASALCDRHSKLFEEPEDPSNRSFFSEIISSISDVKFSHSGRYMMTRDYLSVKIWDLNMENRPVETYQVHEYLRSKLCSLYENDCIFDKFECCWNGSDSVVMTGSYNNFFRMFDRNTKRDITLEASRENNKPRTVLKPRKVCASGKRKKDEISVDSLDFNKKILHTAWHPKENIIAVATTNNLYIFQDKVN
binding [5]: binds

Reference: doi:10.1101/2023.03.06.531310
